Measured values reported in PubChem BioAssay AID504467 (National Center for Advancing Translational Sciences (NCATS), 2011).
About 7,700 (2.3%) of roughly 330,000 compounds were called active. Inconclusive means that the source gave no clear call. Such entries were picked first, then a sample of the others. Calls follow the shape of the dose curve; as a rule, active = well fitted inhibition curve with a large enough effect; inconclusive = small, poorly fitted or top-dose-only effect, or effect the other way; inactive = flat fitted curve, though single readings scatter. Potencies of inconclusive entries are doubtful fits and often do not repeat.

Test: qHTS screen for small molecules that inhibit ELG1-dependent DNA repair in human embryonic kidney (HEK293T) cells expressing luciferase-tagged ELG1; also: nearly all actives have a fitted effect of over 55% in size
Conditions: HEK293T ELG1-luciferase reporter, luminescence, 16 h, DNA damage induced by 5-fluorouridine; series mostly up to 46.1 µM
Outline: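 Reporter activity after DNA damage by 5-fluorouridine is monitored. Compound-treated cells incubate 16 hr at 37 °C, then ONE-Glo is added for 30 min before luminescence reading.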
Potency is read from the fitted curve at half-maximal effect.

| Compound | Potency |
| --- | --- |
| CCC(C)NC(=O)CSc1nc2n[nH]c(C)c2c(=N)n1-c1ccc(OC)cc1 (stereo unspecified) | inactive |
| C/C(=N\NC(=O)c1ccc(Cn2cc([N+](=O)[O-])cn2)o1)c1cccc(NC(=O)c2cccnc2)c1 | inconclusive: 18.4 µM [inhibitor, single point] |
| O=C(c1cc(-c2ccc(Cl)cc2)n(-c2ccc(Cl)cc2)n1)N1CCOCC1 | inconclusive: 29.1 µM [inhibitor, single point] |
| COc1cc(NC(=O)C2CSC3(C)CCC(=O)N23)c(OC)cc1Cl (stereo unspecified) | inactive |
| Cc1cc2c(N=O)c(NO)ccc2[nH]1 | inactive |
| CCOP(=O)(OCC)C(Nc1ccccc1)c1ccc2c(c1)OCO2 (stereo unspecified) | inconclusive: 5.8 µM [activator, partial curve, poor fit] |
| Cc1noc(C)c1-c1csc(N2CCC(C(N)=O)CC2)n1 | inconclusive: 4.11 µM [activator, full curve] |
| CCOc1ccc(Nc2oc(-c3ccc(Cl)cc3)nc2C#N)cc1 | inconclusive: 29.1 µM [activator, partial curve, poor fit] |
| Cc1nc2cc(NC(=O)CCS(=O)(=O)c3ccccc3)ccc2s1 | inconclusive: 3.26 µM [activator, full curve] |
| COC(=O)C1=C(C)N(Cc2ccccc2)C(=O)N[C@H]1c1ccccc1 | inactive |
| COc1cccc(C(=O)N=c2sc3c(C)ccc(OC)c3n2C)c1 | inconclusive: 1.84 µM [activator, partial curve] |
| CC(=O)c1cnc2nc(SCc3ccccc3)nn2c1C | inconclusive: 16.4 µM [activator, partial curve] |
| CC(=O)NC(C)C12CC3CC(CC(C(=O)O)(C3)C1)C2 (stereo unspecified) | inconclusive: 16.4 µM [activator, single point] |
| CCOc1cccc(CN2CCC(Oc3ccc(C(=O)NCc4ccccn4)cc3)CC2)c1 | inconclusive: 7.3 µM [inhibitor, partial curve, poor fit] |
| O=C(CSc1nc(=O)[nH]c2c1CCCC2)Nc1cc(C(F)(F)F)cc(C(F)(F)F)c1 | inactive |
| COc1cccc(/C=C/C(=O)OCC(=O)NC2CC2)c1OC | inactive |
| CC(C)OCCCNC(=O)c1ccc2c(c1)NC(=O)c1ccccc1S2 | inactive |
| O=C(NCc1ccccc1)c1onc(CS(=O)(=O)c2ccccn2)c1C(=O)NCc1ccccc1 | inconclusive: 25.1 µM [inhibitor, single point] |
| CC1(OC(=O)c2ccc(Cl)nc2)C(=O)C=C2C=C3CCCN3C=C2C1=O (stereo unspecified) | inactive |
| O=C(c1ccco1)N1CCN(c2nnc(-c3ccccc3)c3ccccc23)CC1 | inconclusive: 20.6 µM [inhibitor, single point] |
| c1ccc(-c2nnc3ccc(N4CCCC4)nn23)cc1 | inactive |
| CC(=O)N1CCN(c2ccnc3cc(Cl)ccc23)CC1 | inconclusive: 5.8 µM [inhibitor, partial curve, poor fit] |
| CCOc1ccc(N(C(=O)CNS(=O)(=O)c2ccccc2)C(CC)C(=O)NCc2ccco2)cc1 (stereo unspecified) | inconclusive: 16.4 µM [activator, partial curve, poor fit] |

Of the compounds above, 4 contain an aryl methoxy group:

| Compound | Potency |
| --- | --- |
| CCC(C)NC(=O)CSc1nc2n[nH]c(C)c2c(=N)n1-c1ccc(OC)cc1 (stereo unspecified) | inactive |
| COc1cc(NC(=O)C2CSC3(C)CCC(=O)N23)c(OC)cc1Cl (stereo unspecified) | inactive |
| COc1cccc(C(=O)N=c2sc3c(C)ccc(OC)c3n2C)c1 | inconclusive: 1.84 µM [activator, partial curve] |
| COc1cccc(/C=C/C(=O)OCC(=O)NC2CC2)c1OC | inactive |

Continuation:

| Compound | Potency |
| --- | --- |
| O=C1Nc2ccccc2C1=Nc1ccc(Br)cc1 | inactive |
| CC(C)N(C(=O)[C@H]1C[C@H](CC(=O)NCCCN(C)C)C(=O)N2CCc3c([nH]c4cc(CCC(=O)N(C)C)ccc34)[C@]12C)C(C)C | inconclusive: 18.3 µM [activator, single point] |
| COc1ccc2[nH]c3c(c2c1)CCN1C(=O)C(CC(=O)NCCC2=CCCCC2)C[C@H](C(=O)N2CCCCC2)[C@@]31C (stereo partly specified) | inconclusive: 11.6 µM [inhibitor, partial curve, poor fit] |
| Cc1ccc(C2CC(c3ccccc3Cl)n3nc(N)nc3N2)cc1 (stereo unspecified) | inactive |
| CC1=Nc2cc(C(=O)NCC3CCCO3)ccc2Sc2ccc(Br)cc21 (stereo unspecified) | inconclusive: 16.4 µM [inhibitor, single point] |
| COc1ccc(NC(=O)CSc2nc3ccccc3n2-c2ccccc2)c([N+](=O)[O-])c1 | inconclusive: 29.1 µM [inhibitor, single point] |
| CN(C)C(=O)c1ccc(NC(=O)c2cccc(S(=O)(=O)N3CCCCCC3)c2)cc1 | inactive |
| CC(=O)Nc1cc(OC(C)=O)c2nonc2c1OC(C)=O | inconclusive: 25.9 µM [inhibitor, single point] |
| Cc1ccc(CCC(=O)Nc2nccs2)o1 | inactive |
| O=C(NCCNS(=O)(=O)c1ccccc1Cl)c1cc(OCC(F)(F)F)ccc1OCC(F)(F)F | active: 14.6 µM |
| COc1ccc(/C=N/NC(=O)C(=O)N2CCCCCC2)cc1 | inconclusive: 18.3 µM [activator, single point] |
| CCOC(=O)C(=CNc1ccccc1N1CCOCC1)C(=O)OCC | inconclusive: 25.9 µM [inhibitor, partial curve, poor fit] |
| CCN(Cc1ccncc1)C(=O)C(CO)c1ccccc1 (stereo unspecified) | inactive |
| O=C1COc2ccc(C(=O)COC(=O)CNC(=O)C3CCCCC3)cc2N1 | inactive |
| O=C(COc1ccccc1Cl)Nc1ccc(NC(=O)c2ccco2)cc1 | inactive |
| Cc1ccsc1C(=O)N1CCCC(CCC(=O)N2CCN(c3ccccn3)CC2)C1 (stereo unspecified) | inconclusive: 20.6 µM [inhibitor, partial curve] |
| CCOc1ccc(/C(O)=C/C(=O)C(=O)Nc2ccc(S(=O)(=O)NC(C)=O)cc2)cc1 | inactive |
| CC(C)OCCCn1c(SCC(=O)N2CCc3ccccc32)nc2ccccc2c1=O | inactive |
| CCOC(=O)C(C)Oc1cccc2c(=O)n(CC(=O)NCc3ccccc3)ccc12 (stereo unspecified) | inconclusive: 0.82 µM [inhibitor, single point] |
| O=C(N/N=C/c1ccco1)Nc1ccccc1 | inconclusive: 13 µM [activator, partial curve] |
| CC(C)(OC(=O)c1ccc(C#N)cc1)c1cc2ccccc2c(=O)o1 | inactive |
| Cc1cc(C)c(C(=O)COC(=O)c2nn(C)c(=O)c3ccccc23)cc1C | inconclusive: 0.651 µM [inhibitor, partial curve] |
| COc1ccc(NC(=O)c2cc3c(=O)n4ccccc4nc3n2C)c(OC)c1 | inconclusive: 2.91 µM [activator, full curve, poor fit] |
